The list shows only some results of the screen, not a fair sample: it is rich in T/C values a quarter to a half above the control, in often repeated tests (any T/C) and in doses without a T/C. Other doses and runs of a compound stand elsewhere. T/C gives the treated animals as a percentage of the vehicle group. Some entries give survivors of the animals treated and no T/C: the source files T/C as zero there, which appears to mark a toxic dose or a test without result, not a measured value. Some survivor counts are full or nearly so, which does not show that the dose was tolerated: survival well below the control is almost never listed, so the zero probably covers shortened survival too. Survivors were counted at the toxicity check, usually on the fifth day, unless a day is given; later deaths do not show. Schedule codes are those of the source, taken here to give the interval after Q, in days (D) or hours (H), and the number of doses after X. Counts like (3×) count equal records among those shown. Some doses were run more than once; the results are listed from low to high. For survival time, this PubChem deposit counts one and a half times the control or more as active, and values a quarter to a half above the control carry no call in these data; other NCI protocols may use other cut-offs. Some T/C values carry the count of animals alive at the toxicity check (mostly the fifth day); without a count, all were alive then.
Tested on: P388 leukemia ip, CD2F1 mice, survival T/C
Test: NCI In Vivo Anticancer Drug Screen. Data for tumor model P388 Leukemia (intraperitoneal) in CD2F1 (CDF1) mice
Settings: T/C endpoint: median survival time, higher T/C = longer survival
[1] = dose: 4.17 mg/kg/injection, schedule: Q03HX015 (ip), vehicle: DMSO
[2] = dose: 8.34 mg/kg/injection, schedule: Q03HX015 (ip), vehicle: DMSO
[3] = dose: 16.67 mg/kg/injection, schedule: Q03HX015 (ip), vehicle: DMSO
[4] = dose: 16.67 mg/kg/injection, schedule: Q03HX015 (ip), vehicle: Klucel (hydroxypropylcellulose) (HPC)
[5] = dose: 16.67 mg/kg/injection, schedule: Q03HX015 (ip), vehicle: alcohol
[6] = dose: 16.67 mg/kg/injection, schedule: Q03HX015 (ip), vehicle: other
[7] = dose: 16.67 mg/kg/injection, schedule: Q03HX015 (ip), vehicle: saline with Tween-80
[8] = dose: 25.0 mg/kg/injection, schedule: Q01DX005 (ip), vehicle: alcohol
[9] = dose: 33.33 mg/kg/injection, schedule: Q03HX015 (ip), vehicle: alcohol
[10] = dose: 33.33 mg/kg/injection, schedule: Q03HX015 (ip), vehicle: other
[11] = dose: 33.33 mg/kg/injection, schedule: Q03HX015 (ip), vehicle: saline with Tween-80
[12] = dose: 50.0 mg/kg/injection, schedule: Q01DX005 (ip), vehicle: alcohol
[13] = dose: 50.0 mg/kg/injection, schedule: Q01DX005 (ip), vehicle: other
[14] = dose: 100.0 mg/kg/injection, schedule: Q01DX005 (ip), vehicle: saline with Tween-80

N=C(N)c1ccc(N=NNc2ccc(C(=N)N)cc2)cc1 was tested, and the T/C (dose: 1.05 mg/kg/injection, schedule: Q03HX015 (ip), vehicle: DMSO) was 98, 103, 115 [4 of 6 alive] (2×), 120 % of control [5 of 6 alive], the T/C (dose: 1.05 mg/kg/injection, schedule: Q03HX015 (ip), vehicle: Klucel (hydroxypropylcellulose) (HPC)) was 93, 94, 106 (2×), 108 % of control and the T/C (dose: 1.05 mg/kg/injection, schedule: Q03HX015 (ip), vehicle: alcohol) was 91 (2×), 93, 102 (2×), 110 % of control. For the same compound, the T/C (dose: 1.05 mg/kg/injection, schedule: Q03HX015 (ip), vehicle: other) was 93 [5 of 6 alive], 97, 99, 100 % of control (2×), the T/C (dose: 1.05 mg/kg/injection, schedule: Q03HX015 (ip), vehicle: saline with Tween-80) was 101, 103, 104, 105 % of control (2×) and the T/C (dose: 2.09 mg/kg/injection, schedule: Q03HX015 (ip), vehicle: DMSO) was 99, 104, 112 [5 of 6 alive] (2×), 120 % of control [5 of 6 alive]. The T/C (dose: 2.09 mg/kg/injection, schedule: Q03HX015 (ip), vehicle: Klucel (hydroxypropylcellulose) (HPC)) was 93, 98, 100, 105 % of control (2×), the T/C (dose: 2.09 mg/kg/injection, schedule: Q03HX015 (ip), vehicle: alcohol) was 92 (2×), 94, 108 (2×), 111 % of control and the T/C (dose: 2.09 mg/kg/injection, schedule: Q03HX015 (ip), vehicle: other) was 98, 100, 102, 105 % of control [5 of 6 alive] (2×). For the same compound, the T/C (dose: 2.09 mg/kg/injection, schedule: Q03HX015 (ip), vehicle: saline with Tween-80) was 103 (2×), 107, 108 % of control (2×), the T/C [1] was 100 and 108 % of control and the survivor count [1] was 2 of 6 and 3 of 6. For the same compound, the T/C (dose: 4.17 mg/kg/injection, schedule: Q03HX015 (ip), vehicle: Klucel (hydroxypropylcellulose) (HPC)) was 91, 94, 100 (2×), 104 % of control, the T/C (dose: 4.17 mg/kg/injection, schedule: Q03HX015 (ip), vehicle: alcohol) was 97 (2×), 100, 101, 102 % of control [5 of 6 alive] (2×) and the T/C (dose: 4.17 mg/kg/injection, schedule: Q03HX015 (ip), vehicle: other) was 101, 103 [5 of 6 alive] (2×), 107, 108 % of control. The T/C (dose: 4.17 mg/kg/injection, schedule: Q03HX015 (ip), vehicle: saline with Tween-80) was 100, 106, 107, 108 % of control (2×), the T/C [2] was 101 [5 of 6 alive] and 107 % of control and the survivor count [2] was 0 of 6 and 2 of 6. The T/C (dose: 8.34 mg/kg/injection, schedule: Q03HX015 (ip), vehicle: Klucel (hydroxypropylcellulose) (HPC)) was 93, 100, 103, 108 % of control (2×), the T/C (dose: 8.34 mg/kg/injection, schedule: Q03HX015 (ip), vehicle: alcohol) was 97 (2×), 100, 108, 112 % of control (2×) and the T/C (dose: 8.34 mg/kg/injection, schedule: Q03HX015 (ip), vehicle: other) was 100, 102, 104, 113 % of control (2×). The T/C (dose: 8.34 mg/kg/injection, schedule: Q03HX015 (ip), vehicle: saline with Tween-80) was 100, 107, 109, 112 % of control (2×), the T/C (dose: 12.5 mg/kg/injection, schedule: Q01DX005 (ip), vehicle: saline with Tween-80) was 148 % of control and the T/C [3] was 113 % of control. The survivor count [3] was 0 of 6, the T/C [4] was 88 [5 of 6 alive], 101, 114 % of control (2×) and the survivor count [4] was 5 of 6. For the same compound, the T/C [5] was 99 [5 of 6 alive] (2×), 110, 117 % of control [5 of 6 alive], the survivor count [5] was 4 of 6 and the T/C [6] was 92 [5 of 6 alive], 108 (2×), 109 % of control. For the same compound, the survivor count [6] was 2 of 6, the T/C [7] was 90 [4 of 6 alive], 107, 112 % of control (2×) and the survivor count [7] was 5 of 6. The T/C (dose: 25.0 mg/kg/injection, schedule: Q01DX005 (ip), vehicle: DMSO, evaluated on day 20) was 98 % of control, the T/C (dose: 25.0 mg/kg/injection, schedule: Q01DX005 (ip), vehicle: DMSO, evaluated on day 30) was 95, 98, 110 [5 of 6 alive], 114 % of control and the T/C (dose: 25.0 mg/kg/injection, schedule: Q01DX005 (ip), vehicle: Klucel (hydroxypropylcellulose) (HPC), evaluated on day 20) was 92 % of control. The T/C (dose: 25.0 mg/kg/injection, schedule: Q01DX005 (ip), vehicle: Klucel (hydroxypropylcellulose) (HPC), evaluated on day 30) was 97 (2×), 101, 102 % of control, the T/C [8] was 87, 92, 93, 98 % of control and the survivor count [8] was 5 of 6. For the same compound, the T/C (dose: 25.0 mg/kg/injection, schedule: Q01DX005 (ip), vehicle: other, evaluated on day 20) was 91 % of control, the T/C (dose: 25.0 mg/kg/injection, schedule: Q01DX005 (ip), vehicle: other, evaluated on day 30) was 94, 95, 96, 103 % of control and the T/C (dose: 25.0 mg/kg/injection, schedule: Q01DX005 (ip), vehicle: saline with Tween-80, evaluated on day 20) was 92 % of control. The T/C (dose: 25.0 mg/kg/injection, schedule: Q01DX005 (ip), vehicle: saline with Tween-80, evaluated on day 30) was 97, 100, 101, 104, 109, 155 % of control, the survivor count (dose: 33.33 mg/kg/injection, schedule: Q03HX015 (ip), vehicle: DMSO) was 0 of 6 and the survivor count (dose: 33.33 mg/kg/injection, schedule: Q03HX015 (ip), vehicle: Klucel (hydroxypropylcellulose) (HPC)) was 0 of 6, 3 of 6, 4 of 6. For the same compound, the T/C [9] was 113 % of control, the survivor count [9] was 0 of 6 and the T/C [10] was 123 % of control. The survivor count [10] was 0 of 5 and 0 of 6, the T/C [11] was 108 [4 of 6 alive] (2×) and 112 % of control and the survivor count [11] was 0 of 6 and 1 of 6. For the same compound, the survivor count (dose: 50.0 mg/kg/injection, schedule: Q01DX005 (ip), vehicle: DMSO) was 0 of 6, 1 of 6, 2 of 6, 3 of 6, 4 of 6, the T/C (dose: 50.0 mg/kg/injection, schedule: Q01DX005 (ip), vehicle: Klucel (hydroxypropylcellulose) (HPC), evaluated on day 20) was 97 % of control and the T/C (dose: 50.0 mg/kg/injection, schedule: Q01DX005 (ip), vehicle: Klucel (hydroxypropylcellulose) (HPC), evaluated on day 30) was 101, 103 [5 of 6 alive], 104 [5 of 6 alive], 111 % of control [4 of 6 alive]. The T/C [12] was 94 and 114 % of control [5 of 6 alive], the survivor count [12] was 0 of 6, 3 of 6, 4 of 6 and the T/C [13] was 95 % of control [4 of 6 alive] (2×). The survivor count [13] was 0 of 6 and 1 of 6, the T/C (dose: 50.0 mg/kg/injection, schedule: Q01DX005 (ip), vehicle: saline with Tween-80, evaluated on day 20) was 108 % of control and the T/C (dose: 50.0 mg/kg/injection, schedule: Q01DX005 (ip), vehicle: saline with Tween-80, evaluated on day 30) was 97, 100 [5 of 6 alive], 102 [5 of 6 alive], 103, 106 [3 of 4 alive], 163, 177 % of control. For the same compound, the survivor count (dose: 100.0 mg/kg/injection, schedule: Q01DX005 (ip), vehicle: DMSO) was 0 of 6 (2×), the survivor count (dose: 100.0 mg/kg/injection, schedule: Q01DX005 (ip), vehicle: Klucel (hydroxypropylcellulose) (HPC)) was 0 of 6 (2×) and 1 of 6 and the survivor count (dose: 100.0 mg/kg/injection, schedule: Q01DX005 (ip), vehicle: Klucel + Tween-80) was 0 of 10. For the same compound, the survivor count (dose: 100.0 mg/kg/injection, schedule: Q01DX005 (ip), vehicle: alcohol) was 0 of 6 (2×), the survivor count (dose: 100.0 mg/kg/injection, schedule: Q01DX005 (ip), vehicle: other) was 0 of 6 (2×) and the T/C [14] was 155 and 174 % of control. The survivor count [14] was 0 of 6 (2×), the survivor count (dose: 200.0 mg/kg/injection, schedule: Q01DX005 (ip), vehicle: DMSO) was 0 of 6 (2×) and the survivor count (dose: 200.0 mg/kg/injection, schedule: Q01DX005 (ip), vehicle: Klucel (hydroxypropylcellulose) (HPC)) was 0 of 6 (2×). The survivor count (dose: 200.0 mg/kg/injection, schedule: Q01DX005 (ip), vehicle: Klucel + Tween-80) was 0 of 10, the survivor count (dose: 200.0 mg/kg/injection, schedule: Q01DX005 (ip), vehicle: alcohol) was 0 of 6 (2×) and the survivor count (dose: 200.0 mg/kg/injection, schedule: Q01DX005 (ip), vehicle: other) was 0 of 6 (2×). The survivor count (dose: 200.0 mg/kg/injection, schedule: Q01DX005 (ip), vehicle: saline with Tween-80) was 0 of 6 (2×) and 6 of 6.

— PubChem BioAssay AID330 (DTP/NCI, 2004)
